Reference: PubChem BioAssay AID1508600 (Functional Genomics Laboratory (NCATS/FGL), 2020)
In all, about 53,000 sequences went through this assay and about 3,700 (7%) were called active.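 Rule for the calls: active = gene knockdowns whose robust z-score for IL-1 alpha signal is at least 2 or at most -2, so actives lie on both sides; inactive = the rest.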 The list shows a part of the results.

experiment: Components of the Cytosolic LPS Sensing Pathway: Gene Identification via Genome-wide siRNA Screen; settings: RAW264.7 macrophages, IL-1a HTRF, actives lie on both sides, screened at 100 nM (by protocol), cells primed 5 h with Pam3CSK4 first;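 note: robust z of the log signal after scaling to non-targeting control siRNA wells of the plate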
Method in brief: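 Three distinct siRNAs per gene were tested singly at 100 nM in RAW264.7 macrophages. Following Pam3CSK4 priming and 24 hour LipidA transfection, IL-1a secretion was read by HTRF.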

Sequence | z-score
GCUCUUGACUCACUCAGCATT against Il1bos | active: -2.01
GGAAGAUCCCAGAAUUAACTT against Prrc1 | inactive: 0.125
GGACAGAGUCAUUUGAUGUTT against Cldnd1 | inactive: -0.16
GCCCACUCAUUCAUGGAAATT against Smndc1 | inactive: -0.185
GGCCCUCAGUUAUUAUGAGTT against Ift140 | inactive: 0.977
GGACAGCUUGUAAAUUGCCTT against Mup21 | active: -2.05
GCAAGAACUAUUGCUAUUUTT against Vmn1r217 | inactive: -1.18
CCACUUUUUGGAUAAUCUGTT against Cep104 | inactive: -0.994
GCUAUGAAGAAAAAUCGGATT against Mettl21e | inactive: 0.362
GGGUUUUUUCAACCAGAAUTT against Hyal2 | inactive: -1.02
GGCUAUCAUGUUACCUAGGTT against Olfr25 | inactive: 0.385
GGUCAUUGUCAGUACCGGATT against Pomk | inactive: 0.943
CCUGUGCACUGAAAGCACGTT against Mogat2 | inactive: -0.233
GGUGGAAAAUGGUUGGUUUTT against Mfap3 | inactive: -0.493
CGAGCGACUAGAAAAUGACTT against Nprl2 | inactive: -0.568
GCCCACGUACAGAAAACAGTT against Aox2 | inactive: -1.72
GGAGUGGUACACAGACAUGTT against Srd5a2 | inactive: -0.113
CCAUUUCUCACCAGUGAUCTT against Gm5535 | active: -2.61
GGCACCUAAAUUCUUGAAUTT against Hspb6 | inactive: -0.356
GCGAAAUUCUAUCCAGCCATT against Trp53 | inactive: 0.632
GCUAACCAUGUAAAAGCUATT against Pde3a | inactive: -0.976
GCUCCAUUGGGUGUGAACATT against Atg4d | inactive: 0.0237
GCAGGUACUAUGGUUAAGCTT against Dnd1 | inactive: -0.263

Sequence | z-score
GGAAACACCAAGAUUCCAGTT against Sprr3 | inactive: -0.445
CCUGAUCAACAAACCGGAUTT against Rfxank | inactive: 1.29
GGCGAGAAGAUCCUUAUCCTT against Wdr3 | inactive: -1.24
GCGGACCAUCGAGAAGUUUTT against Eef1a2 | inactive: -0.933
CCAUUAUGGACAAUAAGAGTT against Rnf8 | inactive: 0.396
GGAAGUCAUGAAGAACAGATT against Nup50 | inactive: 0.802
GGUCAACAUCGAUGAGCUATT against Ppp1r14a | inactive: 0.17
GCGAUUACUGGAGAUAGAGTT against Zrsr1 | inactive: -0.245
GGACAAAGACAAAAAGGAUTT against Pole3 | inactive: -1.8
GGGCAGCUUUGAAACACUCTT against Clspn | inactive: -0.663
GGUUACUUUGGGAAAGUUGTT against Rpl27a | inactive: 1.56
CCCACUUGACUGAAAAGAUTT against Nmnat2 | inactive: -0.388
GGCAAUUGUCCACAAACUCTT against Smyd5 | inactive: 0.399
GGAAAGAAACCGUAUAAAUTT against Zfp93 | inactive: 0.116
GGAAUCAGAGAAAUUGUAATT against Ctsq | inactive: -1.29
GGCAUGAUAAGCUUCGAUGTT against Pmm1 | inactive: -0.51
GCUUCCUGUUCGACGUAUCTT against Gdf7 | inactive: 0.233
GAGAAUCCUCACAUAAUCATT against Tnk1 | inactive: 0.813
GGUACACCUGGUAGAAUUGTT against Ppp1r16a | inactive: 0.497
GGACGACUUUGAUUUCAACTT against Stat3 | inactive: 1.4
GGUUAACAUUUUCAGUCAUTT against Itga2 | inactive: -0.986
CCACCAGACUCAUAUUAACTT against LOC433501 | inactive: -1.38
GGUGGCCAAGGAAAAUGGUTT against Pcx | inactive: -0.477

Sequence | z-score
GGCUUCUUUUUGUUCUCUGTT against Apex2 | inactive: -1.85
GCAAAGCUGAUGGACUCAATT against Zbed5 | inactive: -0.179
CCUGCACUGGGAAAUAUGGTT against Polr2g | inactive: -1.76
GGCCAGAUCUUCUAAAUUCTT against Lect2 | inactive: 0.552
GGCCAAGCUGAUCAAUAUATT against Oprd1 | inactive: -0.0338
GCUCUUAGAUACAGUUUUATT against Pds5b | inactive: 0.598
GCGUGGACGAAUGGAAACATT against Mapk13 | inactive: -0.942
GGUCGACAUUGAAGCUAUUTT against Ralyl | inactive: -0.517
GGACAUCACCAUGACAGACTT against Pnmt | inactive: -1.61
GGAGAGCGGGUCAUCACAUTT against Efna4 | inactive: 1.52
GCAAUACUUUGCAUGCAUUTT against 9530002B09Rik | inactive: 0.16
GGCAUGAAUCAGUCUAUGGTT against Olfr1308 | inactive: 0.656
GCCAAGUAAAACCAAAUGUTT against Ldlrad4 | inactive: -1.85
GGAUAGGUGGCUGAUAGUGTT against Hsd3b4 | inactive: -0.0303
GGAGCUGGAGACUAAAGCUTT against Slc29a2 | inactive: -0.478
GGAACUUGAAAUCGUAAUUTT against Magohb | inactive: -0.121
GGCUACGAAACCAGAAGAUTT against Shd | inactive: -1.03
GGAGGUUGAGGCUUCUAAGTT against Pacsin3 | inactive: 1.2
GCUCACAGAAACGACCCAUTT against Bicd1 | inactive: -0.686
GGCAUUUAUUUACCCUAGATT against Pcdha11 | inactive: 0.596
GGAGCAGACGAUAUGCAGATT against Copb2 | inactive: 0.559
GGAACUGCCCAUUCAUCUATT against Pramel6 | inactive: -0.464

5 records picked at random from the list so far, as already listed:
Sequence | z-score
GGAUAGGUGGCUGAUAGUGTT against Hsd3b4 | inactive: -0.0303
GGAGGUUGAGGCUUCUAAGTT against Pacsin3 | inactive: 1.2
GCCAAGUAAAACCAAAUGUTT against Ldlrad4 | inactive: -1.85
GGCUACGAAACCAGAAGAUTT against Shd | inactive: -1.03
GGAACUUGAAAUCGUAAUUTT against Magohb | inactive: -0.121
